For 1 substance, binding results are on record in publication PMC10352565.

The chains behind the UniProt entries cited, without tags or fusion partners.
UniProt Q5SU73: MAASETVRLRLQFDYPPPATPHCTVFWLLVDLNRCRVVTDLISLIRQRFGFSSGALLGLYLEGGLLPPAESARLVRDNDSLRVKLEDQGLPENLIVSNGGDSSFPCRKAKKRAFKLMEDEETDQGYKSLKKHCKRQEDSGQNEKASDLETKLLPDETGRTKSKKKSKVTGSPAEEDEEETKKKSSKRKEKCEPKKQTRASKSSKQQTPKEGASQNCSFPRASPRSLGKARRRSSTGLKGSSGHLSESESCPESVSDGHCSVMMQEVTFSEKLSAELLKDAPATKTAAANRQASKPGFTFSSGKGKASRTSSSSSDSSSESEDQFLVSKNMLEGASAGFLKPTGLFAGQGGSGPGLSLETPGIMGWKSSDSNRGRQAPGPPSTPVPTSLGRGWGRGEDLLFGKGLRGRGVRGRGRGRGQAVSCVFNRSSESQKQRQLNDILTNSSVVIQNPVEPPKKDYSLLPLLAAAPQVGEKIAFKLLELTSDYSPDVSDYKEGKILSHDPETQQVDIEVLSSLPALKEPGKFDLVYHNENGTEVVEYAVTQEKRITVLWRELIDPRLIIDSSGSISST

The target in this assay is T1, HSF4 (mouse (endogenous in NIH-3T3)) (UniProt Q9R0L1).
T1 sequence: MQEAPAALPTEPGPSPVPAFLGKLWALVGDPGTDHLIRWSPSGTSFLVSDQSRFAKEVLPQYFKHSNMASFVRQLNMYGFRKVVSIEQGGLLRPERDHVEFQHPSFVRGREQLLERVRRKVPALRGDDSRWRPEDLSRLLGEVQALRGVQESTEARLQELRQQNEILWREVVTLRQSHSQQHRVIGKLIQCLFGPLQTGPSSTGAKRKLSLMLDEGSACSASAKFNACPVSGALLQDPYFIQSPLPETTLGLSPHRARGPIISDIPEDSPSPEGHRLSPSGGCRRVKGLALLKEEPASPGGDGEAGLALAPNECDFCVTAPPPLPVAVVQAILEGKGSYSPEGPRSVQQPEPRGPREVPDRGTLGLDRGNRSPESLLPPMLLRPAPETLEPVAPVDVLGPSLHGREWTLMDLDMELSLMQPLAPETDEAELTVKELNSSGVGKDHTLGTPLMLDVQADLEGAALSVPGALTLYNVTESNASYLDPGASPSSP
Briefly: affinity purification with mass spectrometry; pull-down with HSF4 from UV-treated NIH-3T3 cells; antibody or cognate IgG coupled to A/G beads, incubated with proteins overnight at 4°C; proteins pulled down identified by mass spectrometry.

These are yes or no findings as the source states them, for the method shown. In cells and extracts the contact can be indirect. These calls come from enrichment with a bait or labelling near it, and not all partners need be listed.

“COIL (coilin) (from UniProt Q5SU73 1-570)”: the binding result is listed as “binds”.
